According to paper doi:10.1101/2020.03.04.976886:
Results are given in words; binding and its absence hold for the method and conditions named. For some assays here: Binding seen in cells or lysates may run through a third protein. Some entries that bind do so weakly or less than the wild type. Sequences can lack the tags named with a protein.

Amino acid sequences for entries named in this document (tags omitted). A change or cut given only in a name is not applied to a line headed by its entry.
UniProt Q9NFU0: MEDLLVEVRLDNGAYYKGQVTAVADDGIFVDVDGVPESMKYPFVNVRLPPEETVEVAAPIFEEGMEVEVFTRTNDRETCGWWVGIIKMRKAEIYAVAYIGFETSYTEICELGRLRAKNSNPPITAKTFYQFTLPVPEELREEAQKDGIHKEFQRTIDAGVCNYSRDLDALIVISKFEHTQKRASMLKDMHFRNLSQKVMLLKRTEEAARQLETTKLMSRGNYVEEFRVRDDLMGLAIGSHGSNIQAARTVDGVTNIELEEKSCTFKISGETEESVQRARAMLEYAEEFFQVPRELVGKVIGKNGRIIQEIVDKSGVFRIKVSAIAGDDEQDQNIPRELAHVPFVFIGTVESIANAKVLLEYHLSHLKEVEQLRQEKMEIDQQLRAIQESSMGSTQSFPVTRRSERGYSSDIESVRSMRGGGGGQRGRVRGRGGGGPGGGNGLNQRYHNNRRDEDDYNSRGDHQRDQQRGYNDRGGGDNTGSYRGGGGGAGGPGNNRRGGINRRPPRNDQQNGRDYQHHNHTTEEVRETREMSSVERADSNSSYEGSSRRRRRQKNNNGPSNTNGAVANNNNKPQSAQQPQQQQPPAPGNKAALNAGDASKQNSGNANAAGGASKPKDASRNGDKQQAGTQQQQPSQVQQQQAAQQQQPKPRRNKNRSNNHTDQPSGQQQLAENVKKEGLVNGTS

Tests used:
[1] = target: T1, Flag-Myc-tagged Ythdf (Drosophila) (UniProt Q9VBZ5); test: co-IP
T1 sequence: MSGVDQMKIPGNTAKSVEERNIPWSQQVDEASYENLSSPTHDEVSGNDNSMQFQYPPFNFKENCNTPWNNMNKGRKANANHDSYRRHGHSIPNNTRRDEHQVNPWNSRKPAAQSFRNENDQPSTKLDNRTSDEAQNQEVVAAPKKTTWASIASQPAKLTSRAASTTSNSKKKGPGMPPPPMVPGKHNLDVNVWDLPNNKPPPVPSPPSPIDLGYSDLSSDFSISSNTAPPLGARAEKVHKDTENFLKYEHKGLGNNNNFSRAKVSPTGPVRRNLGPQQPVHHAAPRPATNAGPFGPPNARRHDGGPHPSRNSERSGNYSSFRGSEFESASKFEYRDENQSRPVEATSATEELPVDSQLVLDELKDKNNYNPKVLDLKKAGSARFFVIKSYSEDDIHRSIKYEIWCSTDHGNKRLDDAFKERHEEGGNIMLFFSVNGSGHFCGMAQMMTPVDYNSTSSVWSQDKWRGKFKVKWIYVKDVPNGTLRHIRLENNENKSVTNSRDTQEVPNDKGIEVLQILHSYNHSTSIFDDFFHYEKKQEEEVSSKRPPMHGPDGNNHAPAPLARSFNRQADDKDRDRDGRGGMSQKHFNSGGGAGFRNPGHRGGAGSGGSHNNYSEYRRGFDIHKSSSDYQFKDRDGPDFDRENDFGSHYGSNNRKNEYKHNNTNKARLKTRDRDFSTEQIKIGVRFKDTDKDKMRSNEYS

[2] = target: T2, N-GST-tagged Ythdf (full length) (Drosophila) (UniProt Q9VBZ5); test: pull-down
T2 sequence: T1 sequence

Q: How did the binding [1] turn out when “Myc-tagged Fmr1 (from UniProt Q9NFU0 1-684)” was run?
A: Its binding is “binds”.

Q: With “N-His6-tagged Fmr1 (220-684) (from UniProt Q9NFU0 220-684) (domain or fragment)” as the substance, how does the binding [2] read?
A: Its binding is “binds”.
